We go through one substance from publication PMC5354749.

The chains behind the UniProt entries cited, without tags or fusion partners.
UniProt P53667: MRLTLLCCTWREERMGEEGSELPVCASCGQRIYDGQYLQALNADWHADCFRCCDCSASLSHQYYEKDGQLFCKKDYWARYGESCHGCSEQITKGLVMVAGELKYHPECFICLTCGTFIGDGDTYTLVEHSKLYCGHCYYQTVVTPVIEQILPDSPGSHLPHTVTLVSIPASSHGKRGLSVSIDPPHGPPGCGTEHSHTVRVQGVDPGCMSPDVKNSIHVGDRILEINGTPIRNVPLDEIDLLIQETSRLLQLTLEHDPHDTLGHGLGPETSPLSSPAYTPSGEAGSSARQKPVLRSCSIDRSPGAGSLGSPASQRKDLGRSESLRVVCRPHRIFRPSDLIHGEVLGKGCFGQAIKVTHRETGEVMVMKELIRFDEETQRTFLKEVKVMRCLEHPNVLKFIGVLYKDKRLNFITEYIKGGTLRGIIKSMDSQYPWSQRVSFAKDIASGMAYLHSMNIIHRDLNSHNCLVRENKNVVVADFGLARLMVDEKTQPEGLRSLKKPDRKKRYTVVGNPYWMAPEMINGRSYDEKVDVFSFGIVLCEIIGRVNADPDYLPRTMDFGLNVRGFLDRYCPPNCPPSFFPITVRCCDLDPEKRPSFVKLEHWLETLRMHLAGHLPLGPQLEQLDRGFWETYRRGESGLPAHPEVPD

Results are given in words; binding and its absence hold for the method and conditions named. In cells and extracts the contact can be indirect. Sequences can lack the tags named with a protein.

This assay has as its target MBP-LMO2 recombinant fusion protein (human) (UniProt P25791). The assay is described as follows: pull-down; MBP-pulldown: MBP-LMO2 recombinant fusion protein with myc-tagged proteins from HEK293T cell lysates; 1 mg of total protein; only the target purified.

Consider “myc-tagged LIMK1 (from UniProt P53667 1-647) (enzyme)”, for which the binding entry is on record as “no binding”.
